Measured values as given in US7786122B2.
The structures given here were assigned with low confidence; some may be wrong.

Molecular target: γ-secretase (Homo sapiens, UniProt P49768)
Assay: In vitro assay based on the inhibition of Aβ formation from membrane preparations
Conditions: read-out: ACTIVITY RATING (activity based on IC50 values)
Text: In Vitro Assay to Identify γ-Secretase Inhibitor Based on the Inhibition of Aβ Formation from Membrane Preparations.
An isolated membrane fraction which contains functionally active γ-secretase and β-APP substrates can generate γ-secretase cleavage products including Aβ (Roberts, S. B.; Hendrick, J. P.; Vinitsky, A.; Lewis, M.; Smith, D. W.; Pak, R. PCT Publication WO 01/0175435; Fechteler, K.; Kostka, M.; Fuchs, M. Patent Application No. DE 99-19941039; Shearman, M.; Beher, D. et al., Biochemistry, 2000, 39, 8698-8704; Zhang, L. Song, L. et al., Biochemistry 2001, 40, 5049-5055). […] The Aβ present in a homogeneous sample containing membranes can be detected by time-resolved fluorescence with two antibodies that recognize different epitopes of Aβ. […] A lack of fluorescence is indicative of the absence of cleavage products, resulting from inhibition of γ-secretase. […]
A typical membrane-based assay requires 45 μg membrane protein per well in a 96- or 384-well format. […] Incubation of the membranes with the test agent will continue for approximately 90 minutes at which time fluorescence labeled antibodies are added to each well for Aβ quantitation. […] Results are obtained by analysis of the plate in a fluorescence plate reader and comparison to the mock treated membranes and samples in which known amounts of Aβ were added to construct a standard concentration curve. […]

Row | SMILES | IC50 [nM]
1 | COc1ccc(CN(C(CC(C)C)C(N)=O)S(=O)(=O)c2ccc(F)cc2)cc1F (centres unmarked) | < 50
2 | CC(C)CC(C(N)=O)N(CCCCCCn1ccnc1)S(=O)(=O)c1ccc(Cl)cc1 (centres unmarked) | < 50
